Results deposited as PubChem BioAssay AID686943 (Drosophila RNAi Screening Center, 2013)

Purpose: 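Fly genes whose loss alters ERK activation after insulin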 (primary screen)
System: Drosophila S2R+ haemocyte-like cells expressing YFP-tagged ERK (Rolled)
Reagents: long dsRNA against Drosophila genes
Treatment: insulin stimulation versus unstimulated cells; dose and duration not given
Measurement: 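Per-plate z-scores of phospho-ERK immunostaining normalised to YFP-tagged ERK, measured with and without insulin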
Scale: replicate 1, z-score of dpERK with insulin: higher = more active ERK per ERK-YFP after insulin
In all, the deposit lists about 23,000 reagents; shown is a random part of those with a known target gene and a result. 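Extra replicates exist only for a retested subset of genes; insulin dose and duration not given; both raised and lowered dpERK matter.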 Names joined by + are all predicted targets of the reagent. Not all columns of the deposit are shown. Not stated in the record: the amount of reagent, the time to read-out.

replicate 1, z-score of dpERK with insulin, by gene knocked down and reagent
Ser6: DRSC20574 1.32
Pcyt2: DRSC08531 0.27
Rab23: DRSC12305 -0.03
Tsp: DRSC02144 -0.24; DRSC02145 0.37
fd96Cb: DRSC16947 -0.07
Rev1: DRSC08264 -0.4
cv-2: DRSC03861 1.51; DRSC04261 0.13
CG15140: DRSC02440 -0.04
CG14321: DRSC14800 -0.83
Sp1: DRSC17622 0.74; DRSC18717 0.28
E23: DRSC00425 -5.17; DRSC00593 -0.05
CG6418: DRSC10633 -0.73
CG4133: DRSC00639 -0.16
CG30065: DRSC05420 -0.49
sau: DRSC00694 2.89
Crg-1: DRSC22882 0.6
CG15249: DRSC17978 0.9
PVRAP: DRSC09966 0.11; DRSC10577 -0.79
mthl15: DRSC01120 -0.73
rdx: DRSC14526 -1.45; DRSC16580 -0.26
CG13700: DRSC10049 -0.41
stl: DRSC04396 0.82
CG33234: DRSC07994 -0.08
Polr3K + Tcs1: DRSC05988 1.27
CG13605: DRSC14608 0.08

As entered above.
CG13605 [DRSC14608], replicate 1, z-score of dpERK with insulin → 0.08
Result for CG15249 [DRSC17978] in “replicate 1, z-score of dpERK with insulin”: 0.9
For “replicate 1, z-score of dpERK with insulin”, CG13700 [DRSC10049] is entered as -0.41
Pcyt2 [DRSC08531], replicate 1, z-score of dpERK with insulin = 0.27
CG15140 [DRSC02440], replicate 1, z-score of dpERK with insulin → -0.04
PVRAP [DRSC09966], replicate 1, z-score of dpERK with insulin: 0.11

Next entries follow:
replicate 1, z-score of dpERK with insulin, by gene knocked down and reagent
CG43795: DRSC04192 -0.45; DRSC04193 0.53; DRSC04194 0.17; DRSC04309 1.15; DRSC04310 0.15; DRSC04497 1.1; DRSC22826 0.26
Wnt10: DRSC00990 -0.67; DRSC02797 0.34
CG33937 (retired record): DRSC15148 0.62
CG18507: DRSC01334 -0.07; DRSC01914 0.42
Mdr65: DRSC11220 -0.01
flw: DRSC17992 -0.1; DRSC18774 -2.08
vilya: DRSC18588 0.07
oc: DRSC18808 0.74
CG31086 + CG31323: DRSC14902 0.47
Exo70: DRSC10774 -0.23
sesB: DRSC20371 -0.11
ste24c + CR30461 (retired record): DRSC05639 -0.06; DRSC07316 -0.28
CG13036 (retired record): DRSC09916 -0.25
nAChRalpha6: DRSC01096 -0.45; DRSC01098 -1.06; DRSC02738 -0.94
His3:CG33818 + His3:CG33857 + His3:CG33806 + 20 more: DRSC21267 -5.37
CG5391: DRSC15790 1.09
nop5: DRSC03582 -0.2
MBD-like: DRSC16996 -0.74
RYa-R: DRSC16757 0.14
CG13807: DRSC08342 1.09
Timp: DRSC17082 1.12
CG9265: DRSC03178 -0.21; DRSC03179 -0.12
CG32277: DRSC08196 1.41
CG7970: DRSC08605 0.69
Tap42: DRSC02967 0.06
RpLP0: DRSC11878 -1.29; DRSC22110 -1.54
CG14515: DRSC14867 -1.44
Tsp42En: DRSC06185 0.95
